From the supplement of paper PMC12067093, “Discovery and optimisation of a covalent ligand for TRIM25 and its application to targeted protein ubiquitination” (Chemical Science, 2025)
The list shows a part of the results.

Compound: CC1Cc2ccccc2N1C(=O)C1CCCN(C1)C(=O)CCl (mixture of isomers) [TRIM25 ligand 11 (diastereomer mixture)]
Test: probe-labelled cysteine peptide fold change vs DMSO (competition) (log2 fold change); higher = less target engagement (more negative = stronger competition)
Conditions: 10 µM; THP-1; incubation time: 4 h
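Also: competitive chemoproteomic profiling in live THP-1 cells with an iodoacetamide desthiobiotin (IA-DTB) probe, comparing probe-labelled peptide intensities in compound-treated cells against DMSO-treated controls.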

Target | probe-labelled cysteine peptide fold change
GOLGA4_Q13439_1269_TCTVSELEAQLR (UniProt Q13439) | -0.0978
GLA_P06280_378_GVACNPACFITQLLPVKR (UniProt P06280) | -0.101
GNB2_P62879_294_LLLAGYDDFNCNIWDAMK (UniProt P62879) | -0.00796
GK_P32189_421_DCGIPLSHLQVDGGMTSNK (UniProt P32189) | 0.189
GOLGB1_Q14789_681_SLSAVPDIGQCHQDELER (UniProt Q14789) | -0.0704
GNL3L_Q9NVN8_490_IGDLTGYCTNPNR (UniProt Q9NVN8) | -0.0839
GOLGB1_Q14789_3144_SDPEELREPQQSFSEAQQQLCNTR (UniProt Q14789) | 0.00424
GNAI2_P04899_140_RLWADHGVQACFGR (UniProt P04899) | -0.209
GNAQ_P50148_9_TLESIMACCLSEEAK (UniProt P50148) | -0.0572
GOT2_P00505_272_HFIEQGINVCLCQSYAK (UniProt P00505) | 0.221
GOLGB1_Q14789_2664_RIAELEEELVCVQK (UniProt Q14789) | 0.01
GIT2_Q14161_235_LAFYLCGR (UniProt Q14161) | -0.0819
GMIP_Q9P107_508_ECEAFMVSGTECEECFLTCHK (UniProt Q9P107) | -0.086
GLRX2_Q9NS18_153_LLPLVHQCYLK (UniProt Q9NS18) | -0.00243
GNB1_P62873_204_LFVSGACDASAK (UniProt P62873) | -0.0694
GNL1_P36915_517_LSLCFHPPGYSEQK (UniProt P36915) | -0.00574
GLB1_P16278_393_TVGAALDILCPSGPIK (UniProt P16278) | -0.0917
GLIPR1_P48060_156_VGCAVQFCPK (UniProt P48060) | 0.0114

Target | probe-labelled cysteine peptide fold change
GLOD4_Q9HC38_171_SLNYWCNLLGMK (UniProt Q9HC38) | -0.0328
GOT2_P00505_106_EYLPIGGLAEFCK (UniProt P00505) | -0.064
GOT2_P00505_272+274_HFIEQGINVCLCQSYAK (UniProt P00505) | 0.206
GLB1_P16278_426_TTLPQDCSNPAPLSSPLNGVHDR (UniProt P16278) | 0.431
GLG1_Q92896_316_HLYFACR (UniProt Q92896) | 0.0481
GPD2_P43304_546_EYACTAVDMISR (UniProt P43304) | 0.0552
GLG1_Q92896_671_TETGQELECLQDHLDDLVVECR (UniProt Q92896) | 0.0613
GOLGA4_Q13439_1862_ELDSCLVR (UniProt Q13439) | -0.0413
GLA_P06280_378+382_GVACNPACFITQLLPVKR (UniProt P06280) | -0.0751
GOSR1_O95249_34_LCTSYSHSSTR (UniProt O95249) | 0.125
GMPPA_Q96IJ6_154_TQSLNYGCIVENPQTHEVLHYVEK (UniProt Q96IJ6) | 0.0875
GOLPH3_Q9H4A6_280_QLLDLDPEVECLK (UniProt Q9H4A6) | -0.0996
GNB1_P62873_149_ELAGHTGYLSCCR (UniProt P62873) | 0.0453
GLMP_Q8WWB7_216_LLHTADTCQLEVALIGASPR (UniProt Q8WWB7) | -0.18
GNPDA2_Q8TDQ7_239_TIFVCDEDATLELR (UniProt Q8TDQ7) | 0.25
GNL3_Q9BVP2_158_CPQVEEAIVQSGQK (UniProt Q9BVP2) | 0.259
GLUL_P15104_183_ACLYAGVK (UniProt P15104) | -0.0478
GNPDA2_Q8TDQ7_118_HIDIDPNNAHILDGNAADLQAECDAFENK (UniProt Q8TDQ7) | -0.109

Rewritten as comma-separated lines: entries from further up
Target,probe-labelled cysteine peptide fold change
GOLGA4_Q13439_1862_ELDSCLVR (UniProt Q13439),-0.0413
GLA_P06280_378+382_GVACNPACFITQLLPVKR (UniProt P06280),-0.0751
GOSR1_O95249_34_LCTSYSHSSTR (UniProt O95249),0.125
GMPPA_Q96IJ6_154_TQSLNYGCIVENPQTHEVLHYVEK (UniProt Q96IJ6),0.0875
GOLPH3_Q9H4A6_280_QLLDLDPEVECLK (UniProt Q9H4A6),-0.0996
GNB1_P62873_149_ELAGHTGYLSCCR (UniProt P62873),0.0453
GLMP_Q8WWB7_216_LLHTADTCQLEVALIGASPR (UniProt Q8WWB7),-0.18
GNPDA2_Q8TDQ7_239_TIFVCDEDATLELR (UniProt Q8TDQ7),0.25
